PubChem BioAssay AID1159584 | Peter MacCallum Cancer Centre | 2016

Assay: 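Genes that CDH1-null MCF10A cells selectively depend on to survive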 (primary screen)
System: human MCF10A breast epithelial cells, parental and CDH1-null
Reagents: siRNA against human genes
Detection: 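ATP luminescence (CellTiter-Glo) viability per line relative to mean mock wells over all plates, and the ratio of CDH1-null to parental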
Direction: CDH1-null / parental viability ratio: higher = CDH1-null cells survive relatively better than parental; CDH1-null viability vs mock: higher = more viable CDH1-null cells
This is one part, drawn at random, of about 18,000 reagents. Not all columns of the deposit are shown. Not given: the amount of reagent, the time to read-out.

gene symbol	CDH1-null / parental viability ratio	CDH1-null viability vs mock (fraction of mock)
MYCBP (GeneID 26292)	1.06	0.83
POU5F2 (GeneID 134187)	1.06	0.53
GAREM1 (GeneID 64762)	1.2	0.53
NDUFA11 (GeneID 126328)	0.82	0.66
TMEM88 (GeneID 92162)	0.74	0.67
KCNH1 (GeneID 3756)	1.26	0.92
ANKFY1 (GeneID 51479)	0.78	0.62
HTR7 (GeneID 3363)	0.72	0.68
OR4F5 (GeneID 79501)	1.32	0.98
MXI1 (GeneID 4601)	1.17	0.96
GH2 (GeneID 2689)	1.06	1.02
PPIL6 (GeneID 285755)	0.87	0.86
TET2 (GeneID 54790)	1.17	1.05
MKI67 (GeneID 4288)	1.41	0.65
EFR3A (GeneID 23167)	0.91	0.88
DENND1A (GeneID 57706)	0.8	0.7
EXOC5 (GeneID 10640)	0.85	0.66
SLC3A1 (GeneID 6519)	0.77	0.76
DHRS4 (GeneID 10901)	0.83	0.45
SPG11 (GeneID 80208)	0.92	0.79
PRR14 (GeneID 78994)	1.07	0.64
CCDC78 (GeneID 124093)	1.5	0.6
CCR2 (GeneID 729230)	0.78	0.92
SELENON (GeneID 57190)	1.38	1.02
PDZK1IP1 (GeneID 10158)	0.88	0.81
OR52L1 (GeneID 338751)	1.15	1.09
TMC7 (GeneID 79905)	1.37	0.78
RASSF9 (GeneID 9182)	0.72	0.59
GPRASP2 (GeneID 114928)	0.83	0.86
LRGUK (GeneID 136332)	0.76	0.66
WDR70 (GeneID 55100)	1.26	0.86
ARPC1B (GeneID 10095)	1	0.32
HELB (GeneID 92797)	1.02	1.19
CFLAR (GeneID 8837)	2	0.04
CDH18 (GeneID 1016)	1.35	0.84
ACP6 (GeneID 51205)	1.49	1.04
DPEP2 (GeneID 64174)	1.13	0.8
ACADS (GeneID 35)	0.99	1.01
SLU7 (GeneID 10569)	1.07	0.29
HNRNPA2B1 (GeneID 3181)	0.67	0.44
CD47 (GeneID 961)	1.08	0.84
SEZ6 (GeneID 124925)	0.61	0.51
TMC4 (GeneID 147798)	1.47	1
CCDC32 (GeneID 90416)	1.11	0.61
SNRPA (GeneID 6626)	1.19	1.11
PROSER1 (GeneID 80209)	1.04	0.5
DTL (GeneID 51514)	0.91	0.5
PPIL2 (GeneID 23759)	0.83	0.72
SRP72 (GeneID 6731)	0.97	0.62
FNDC4 (GeneID 64838)	1.43	0.97
LDHA (GeneID 3939)	1.01	0.94
S100A8 (GeneID 6279)	1.23	0.9
VCPKMT (GeneID 79609)	1.13	0.88
DDX10 (GeneID 1662)	1.21	0.99
DIP2A (GeneID 23181)	1.26	1.1
ZNF57 (GeneID 126295)	0.95	0.7
ZMYM5 (GeneID 9205)	0.99	1.09
SSX1 (GeneID 6756)	0.89	0.64
SGTA (GeneID 6449)	1.04	0.82
RELN (GeneID 5649)	1.08	0.8
COQ4 (GeneID 51117)	1.09	1
PPAT (GeneID 5471)	1.35	0.92
SERTAD4 (GeneID 56256)	1.39	0.79
STEEP1 (GeneID 63932)	0.76	0.52
PPP6R3 (GeneID 55291)	0.77	0.5
EXO1 (GeneID 9156)	1.05	1.12
MTUS1 (GeneID 57509)	0.86	0.64
EXOC7 (GeneID 23265)	0.97	0.31

Laid out differently: 3 of the entries above
{"gene symbol": "PROSER1 (GeneID 80209)", "CDH1-null / parental viability ratio": 1.04, "CDH1-null viability vs mock (fraction of mock)": 0.5}
{"gene symbol": "DTL (GeneID 51514)", "CDH1-null / parental viability ratio": 0.91, "CDH1-null viability vs mock (fraction of mock)": 0.5}
{"gene symbol": "PPIL2 (GeneID 23759)", "CDH1-null / parental viability ratio": 0.83, "CDH1-null viability vs mock (fraction of mock)": 0.72}
